From US7745446B2, “Pyrazolo[1,5-c]pyrimidines” (Bayer Schering Pharma Aktiengesellschaft, priority 2004, dated 2010)
Some entries share one result that the patent states for a list of compounds.

Key:
GST-ΔPH-Akt1 = biological target: T1, GST-ΔPH-Akt1 (Homo sapiens, UniProt P31749); assay: Biochemical ΔPH Akt1 assay (flashplate, 33P incorporation into histone 2B); conditions: 100 nM ATP, histone 2B substrate; read-out: ΔPHAkt1 inhibition: IC50
T1 construct: named GST-deltaPH-Akt1; 107-480aa; cloned in the pAcGl vector; GST (N); made in house; host or cells: SF9 insect cells (baculovirus vector pAcG1), co-expressed with PDK1
Excerpt: For the biochemical assay ΔPHAkt1 is used devoid of its PH domain as a GST fusion protein (named GST-deltaPH-Akt1; 107-480aa; cloned in the pAcGl vector (BD Biosciences Pharmingen)), co-expressed with PDK1 in SF9 insect cells. The protein is purified using glutathion-affinity chromatography by standard protocols.
In order to study the inhibition of Akt according to the invention, a flashplate-based assay has been developed.
The Akt1 assay is a biochemical assay using Akt1 devoid of its PH domain and co-expressed with PDK1 in insect cells. The GST-ΔPH-Akt1 assay is run in 96 well plates by incubating 100 ng/well GST-ΔPH-Akt1, 100 ng/well histone 2B (Roche, #223514) as substrate, 10 μl of compound of invention (test compounds were dissolved as 10 mM solutions in dimethylsulfoxide (DMSO) and subsequently diluted) and 100 nM ATP (including ^33P-ATP) in 100 μl of reaction buffer ([…], pH7,5; 3 mM MgCl2; 3 mM MnCl2; 3 μM Na-Orthovanadat; 1 mM DTT; 1 μg/ml PEG8000) for 80 minutes at 30° C. The reactions are terminated by adding 100 μl stopping buffer (2% H3PO4 for 5 minutes) and are washed 3 times by using washing buffer (0.9% NaCl). […] This phosphorylation is measured by counting the plate for 60 sec. using a plate reader (Wallac Microbeta; Perkin Elmer, USA).

PKA = biological target: T2, PKA (Homo sapiens, UniProt P17612); assay: Biochemical PKA assay (flashplate); conditions: 100 nM ATP
T2 construct: His; purchased PanVera, USA #R3791; host or cells: E. coli
Procedure: For the biochemical PKA assay the catalytic subunit of PKA is expressed in E. coli as a His-tagged human recombinant protein and purified accordingly (PanVera, USA; #R3791).
In order to study the kinase inhibition activity of the compounds according to the invention, a flashplate-based assay has been developed for the serine/threonine kinase, PKA. The assay is run in 96 well plates by incubating 1 ng/well His-PKA (PanVera, USA; #R3791), 0.5 μM/well PKA peptide (#12-394; Upstate, USA) as substrate, 10 μl of compound of invention (test compounds were dissolved as 10 mM solutions in dimethylsulfoxide (DMSO) and subsequently diluted) and 100 nM ATP (including ^33P-ATP) in 100 μl of reaction buffer ([…], pH7,5; 3 mM MgCl2; 3 mM MnCl2; 3 μM Na-Orthovanadat; 1 mM DTT) for 80 minutes at 22° C. The reactions are stopped by adding 100 μl stopping buffer (2% H3PO4 for 5 minutes) and are washed 3 times by using washing buffer (200 μl 1×PBS). Relying on the incorporation of ^33P into the peptide substrate, the detection is based on the adhesion of the phosphorylated peptide to the surface of scintillator-coated Flash plates (Perkin Elmer, USA; #SMP-103). This phosphorylation is measured by counting the plate for 60 sec. using a plate reader (Wallac Microbeta; Perkin Elmer, USA). By using this method the IC50 of the PKA inhibition is determined.

## Aminomethyl-N-(4-{5-[6-(2-hydroxy-ethoxy)-naphthalen-2-yl]-pyrazolo[1,5-c]pyrimidin-7-ylamino}-phenyl)-benzamide [Example 50]
GST-ΔPH-Akt1
  IC50: ≤ 1750 nM
PKA
  PKA inhibition: −log IC50: substantially inhibit PKA (<4.0) mol/l
